Test results published in PubChem BioAssay AID651593 (National Center for Advancing Translational Sciences (NCATS), 2012).
Among all 1,100 compounds or so, about 860 (78%) were called active. The set was probably picked from earlier hits. The shares of active, inactive and inconclusive entries below differ from those in the screen. Calls come from the whole dose curve; as a rule, active = well fitted activation curve with a large enough effect; inconclusive = small, poorly fitted or top-dose-only effect; inactive = flat fitted curve, though single readings scatter. Potencies beside an inconclusive call are fits to weak or partial responses and may not hold up.

Test: qHTS of Nrf2 Activators: Hit Validation in Primary Assay; note: nearly all actives have a fitted effect of over 70% in size
Details: Nrf2/ARE reporter cell assay; Potency: activation; series mostly up to 46.1 µM
From the text: Many diseases have some form of oxidative stress injury and ties to inflammation, causing a host of problems for the patient. The antioxidant response element (ARE) plays an important role in alleviating the harmful effects of oxidative stress. The antioxidant response element (ARE) is a transcriptional regulatory element involved in the activation of genes coding for a number of antioxidant proteins and detoxifying enzymes. These enzymes work in concert to protect tissues from oxidative insults and chemical toxicities in human hepatocytes and immune cells. The protective effects of ARE activation are primarily triggered through Nrf2 (NF-E2-related factor) binding to and activating AREs. It is known that Nrf2 controls the production of over 250 antioxidant and detoxification proteins (Hu et al., 2006), thereby protecting tissues by increasing cellular antioxidant content and suppressing inflammatory signaling pathways. The transcription factor Nrf2 is a central link between oxidative chemicals, such as phenolic antioxidants and electrophilic compounds, and the activation of ARE. Nrf2 levels are constitutively low as a consequence of its interaction with Keap1, which targets its degradation (Zipper and Mulcahy, 2002). Electrophiles react with key cysteine residues in Keap1, releasing Nrf2 and allowing its translocation to the nucleus. Once within the nucleus, Nrf2 complexes with coactivators such as p300, and binds to the AREs to induce gene transcription of cytoprotective enzymes, resulting in the prevention of toxicity. Activation of Nrf2 protects tissues by increasing cellular antioxidant content and suppressing inflammatory signaling pathways. Identifying novel and potent Nrf2 activators by using the AREc32 cell line to detect ARE activation by small molecules will lead to the identification and development of probes to study protective pathways in multiple tissues. These specific probes are essential to study the ARE pathway, and eventually to determine whether this pathway does activate genes that could protect against a host of diseases, including cardiovascular diseases, obesity, diabetes, Alzheimer's, and Parkinson's disease.
This project's aim is to identify novel and potent Nrf2 activators by using the AREc32 cell line to detect ARE activation by small molecules, which will lead to the identification and development of probes to study the ARE pathway.
NIH Chemical Genomics Center [NCGC]
NIH Molecular Libraries Probe Centers Network [MLPCN]
Assay Submitter (PI): Curtis Klaassen, University of Kansas Medical Center
Quantification of ARE activation after compound treatment was measured by the Steady-Glo Luciferase (R) assay system (Promega) in AREc32_fluc stable cells. The Steady-Glo reagent acts by cell lysis and generation of a luminescent signal proportional to ARE activation, through the luciferase reporter in the AREc32 stable cell line. AREc32_fluc cells were harvested from T225 flask and resuspended in phenol red free OPTI-MEM medium with 5% FBS. Then 5 microL of 200,000 cells/mL resuspended cells were dispensed into each well of white, solid bottom, 1536-well tissue culture-treated plates using a Multidrop Combi dispenser. After overnight culture at 37 degrees C with 5% CO2, a total of 23 nL of compounds at 5 selected concentrations from the MLSMR/Sytravon or positive control (40 uM stock of CDDO-IM and 2 mM of tBHQ) in DMSO was transferred to each well of the assay plate using a pintool (Kalypsys, San Diego, CA), and the plates were further incubated at 37 degrees C with 5% CO2 for 24 hours. After that, 2 microL of Steady Glo luminescent substrate mix (Promega) was added to each well. The plate was incubated at room temperature for 30 minutes. The plates were measured on a ViewLux plate reader (PerkinElmer) with clear filter.
Potency is the fitted concentration of half-maximal effect.

| SMILES | Potency |
| --- | --- |
| CC(=O)c1sc2nc(-c3cccs3)cc(C(F)(F)F)c2c1N | active: 2590 nM |
| Cc1c(Cl)cccc1NC(=S)NC(=O)c1ccccc1 | inconclusive: 2060 nM [activator, partial curve, poor fit] |
| CCCCC1C(=O)N(c2ccccc2)N(c2ccc(O)cc2)C1=O (configuration not stated) | inactive |
| CS(=O)(=O)N1CCN(c2ccccc2NC(=O)c2ccc([N+](=O)[O-])o2)CC1 | inconclusive: 5800 nM [activator, single point] |
| Cc1cc(NC(=O)CN2CCC(O)CC2)nc2c1c(=O)oc1ccccc12 | inconclusive: 2060 nM [activator, full curve] |
| Cc1sc2ncnc(Sc3nnnn3-c3ccccc3)c2c1C | inactive |
| Cc1cc(C)cc(NC(=O)Nc2cccs2)c1 | inconclusive: 7310 nM [activator, partial curve] |
| CCOC(=O)N/N=C\C=C\c1ccco1 | inconclusive: 517 nM [activator, full curve] |
| CCOC(=O)N1CCc2c(sc3c2C(=O)NC(c2ccccc2)N3)C1 (configuration not stated) | inconclusive: 517 nM [activator, full curve] |
| O=C(CCCN1C(=O)/C(=C\c2cccc(Br)c2)SC1=S)Nc1cccnc1 | inconclusive: 2910 nM [activator, full curve] |
| O=C(Nc1ccc(Cl)c(S(=O)(=O)N2CCOCC2)c1)c1cccs1 | inconclusive: 20600 nM [activator, single point] |
| O=C1c2ccccc2-c2onc3ccc(Oc4ccccc4)c1c23 | inconclusive: 5800 nM [activator, single point] |
| CC(=O)COc1ccc2c(c1C)O/C(=C\c1ccco1)C2=O | inconclusive: 580 nM [activator, full curve] |
| O=[N+]([O-])c1ccc(N2CCN(Cc3ccccc3)CC2)c2c1no[n+]2[O-] | inconclusive: 4610 nM [activator, single point] |
| COC(=O)c1c(NC(=O)c2ccccc2)sc(C(N)=O)c1C | active: 1460 nM |
| O=C(COC(=O)/C=C/c1ccco1)Nc1ccc(F)cc1Cl | active: 5800 nM |
| O=c1c(Cl)c(N/N=C/c2ccc(Cl)cc2)cnn1-c1ccccc1 | inconclusive: 2310 nM [activator, partial curve] |
| COc1ccc(N(CCCN2C(=O)c3cccc4cccc(c34)C2=O)C(=O)c2cccc(OC)c2)cc1 | inconclusive: 2310 nM [activator, full curve] |
| Oc1ccccc1Nc1nc2ccccc2n2nnnc12 | inconclusive: 2590 nM [activator, full curve] |
| COc1ccccc1NC(=O)CSc1ccc(-c2ccco2)nn1 | inconclusive: 461 nM [activator, full curve] |
| Cc1ccc(S(=O)(=O)C=CS(=O)(=O)c2ccc(C)cc2)cc1 | inconclusive: 2910 nM [activator, full curve] |

| SMILES | Potency |
| --- | --- |
| CCc1nn2c(-c3ccco3)ccnc2c1-c1ccccc1 | inactive |
| CCCNc1ccc(-c2nc(-c3ccco3)no2)cc1[N+](=O)[O-] | active: 2310 nM |
| N#C/C(=C\C=C\c1ccccc1[N+](=O)[O-])C(=O)NC1CCCCC1 | inconclusive: 3660 nM [activator, single point] |
| CCOc1cc2c(c3c1C(c1ccccc1)N(S(=O)(=O)c1ccc(C)cc1)C3)C(=O)C=CC2=O (configuration not stated) | inconclusive: 1460 nM [activator, partial curve] |
| COc1ccc([N+](=O)[O-])cc1NC(=O)CSc1nccc(C)n1 | inconclusive: 2590 nM [activator, full curve] |
| C=C1CC(COc2cc(=O)oc3ccccc23)(c2ccccc2)OC1=O (configuration not stated) | inconclusive: 5800 nM [activator, single point] |
| O=CNc1c(Cl)cc2c(c1Cl)Cc1cc([N+](=O)[O-])ccc1-2 | inconclusive: 18400 nM [activator, partial curve] |
| COc1ccccc1NC(=O)C(=O)Nc1ccccn1 | inconclusive: 2590 nM [activator, full curve] |
| COc1ccc(/C=C2/CCCC(CN(C)C)C2=O)cc1 (configuration not stated) | inconclusive: 920 nM [activator, single point] |
| Cc1sc(NC(=O)c2ccco2)c(CN2CCCCC2)c1C | inactive |
| C=C(NC(=O)C(=C)NC(=O)c1csc(C2=NC3c4csc(n4)C4NC(=O)c5csc(n5)C(C(C)(O)C(C)O)NC(=O)C5CSC(=N5)/C(=C/C)NC(=O)C(C(C)O)NC(=O)c5csc(n5)C3(CC2)NC(=O)C(C)NC(=O)C(=C)NC(=O)C(=C)NC(=O)C(C(C)C)NC2C=Cc3c(C(C)O)cc(nc3C2O)C(=O)OC4C)n1)C(N)=O (configuration not stated) | inconclusive: 920 nM [activator, full curve] |
| C/C(=N/NC(=O)CNC(=O)/C=C/c1ccco1)c1ccc(Cl)cc1 | inconclusive: 3660 nM [activator, full curve, poor fit] |
| O=C(NCc1ccco1)c1cc(=O)c2ccccc2o1 | inconclusive: 5800 nM [activator, partial curve] |
| O/N=C/c1ccc2cccc(OCc3ccccc3)c2n1 | inconclusive: 7310 nM [activator, partial curve] |
| O=c1[nH]c(SCc2cccc([N+](=O)[O-])c2)nc2[nH]ncc12 | inconclusive: 2310 nM [activator, partial curve] |
| COc1ccc(NC(=O)c2cc(-c3ccco3)nc3ccccc23)cn1 | inconclusive: 18400 nM [activator, partial curve] |
| FC(F)(F)c1cc(-c2cccs2)nc(NCc2ccco2)n1 | active: 4610 nM |
| Cc1ccc(NC(=O)COCc2cc(-c3cccs3)on2)cc1Cl | inconclusive: 10300 nM [activator, partial curve] |
| O=C(O)c1ccc2c(=O)n3c(nc2c1)/C(=C/c1cccc(Cl)c1Cl)CC3 | inconclusive: 4110 nM [activator, full curve] |
| COc1ccc(C(C)=O)cc1OCc1ccccc1 | inconclusive: 6510 nM [activator, partial curve] |
| O=C(NN=Cc1cccc([N+](=O)[O-])c1)c1cccc2ccccc12 | inconclusive: 7310 nM [activator, partial curve] |

Taken from above.
Potency with C/C(=N/NC(=O)CNC(=O)/C=C/c1ccco1)c1ccc(Cl)cc1 reads inconclusive: 3660 nM [activator, full curve, poor fit]
Potency with O=C(NN=Cc1cccc([N+](=O)[O-])c1)c1cccc2ccccc12 reads inconclusive: 7310 nM [activator, partial curve]
Potency with FC(F)(F)c1cc(-c2cccs2)nc(NCc2ccco2)n1 reads active: 4610 nM
